Measured values taken from publication PMC10651859.
A negative result means that nothing was seen under these conditions. For some assays here: Construct, isoform or probe ends are uncertain for at least one entry. For some assays here: Where cells or extracts were used, other partners may take part.

The chains behind the UniProt entries cited, without tags or fusion partners. Where a name states a change or a piece, a line headed by the entry shows the natural chain unless it says otherwise. Residues count along the entry.
UniProt Q04609: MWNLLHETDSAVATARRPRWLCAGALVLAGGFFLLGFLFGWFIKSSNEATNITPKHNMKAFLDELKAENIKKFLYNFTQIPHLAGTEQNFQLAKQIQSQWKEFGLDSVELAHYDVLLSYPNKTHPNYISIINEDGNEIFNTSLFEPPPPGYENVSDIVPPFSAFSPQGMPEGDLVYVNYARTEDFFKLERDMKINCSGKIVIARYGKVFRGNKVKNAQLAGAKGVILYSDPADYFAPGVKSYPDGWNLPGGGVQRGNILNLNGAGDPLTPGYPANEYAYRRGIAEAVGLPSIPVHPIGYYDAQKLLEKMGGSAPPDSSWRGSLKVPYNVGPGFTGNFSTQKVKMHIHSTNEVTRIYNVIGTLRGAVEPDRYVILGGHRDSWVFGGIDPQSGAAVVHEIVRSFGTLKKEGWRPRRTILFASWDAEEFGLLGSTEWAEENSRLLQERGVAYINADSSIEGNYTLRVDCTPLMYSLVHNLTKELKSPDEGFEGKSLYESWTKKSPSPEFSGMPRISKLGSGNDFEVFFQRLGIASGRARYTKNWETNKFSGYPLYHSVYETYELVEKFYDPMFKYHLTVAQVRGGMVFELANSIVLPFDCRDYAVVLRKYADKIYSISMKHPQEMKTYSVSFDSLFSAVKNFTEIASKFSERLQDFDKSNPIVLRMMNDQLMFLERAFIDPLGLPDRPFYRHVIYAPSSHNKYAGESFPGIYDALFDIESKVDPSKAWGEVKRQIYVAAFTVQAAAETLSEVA
UniProt P02769, 25-607: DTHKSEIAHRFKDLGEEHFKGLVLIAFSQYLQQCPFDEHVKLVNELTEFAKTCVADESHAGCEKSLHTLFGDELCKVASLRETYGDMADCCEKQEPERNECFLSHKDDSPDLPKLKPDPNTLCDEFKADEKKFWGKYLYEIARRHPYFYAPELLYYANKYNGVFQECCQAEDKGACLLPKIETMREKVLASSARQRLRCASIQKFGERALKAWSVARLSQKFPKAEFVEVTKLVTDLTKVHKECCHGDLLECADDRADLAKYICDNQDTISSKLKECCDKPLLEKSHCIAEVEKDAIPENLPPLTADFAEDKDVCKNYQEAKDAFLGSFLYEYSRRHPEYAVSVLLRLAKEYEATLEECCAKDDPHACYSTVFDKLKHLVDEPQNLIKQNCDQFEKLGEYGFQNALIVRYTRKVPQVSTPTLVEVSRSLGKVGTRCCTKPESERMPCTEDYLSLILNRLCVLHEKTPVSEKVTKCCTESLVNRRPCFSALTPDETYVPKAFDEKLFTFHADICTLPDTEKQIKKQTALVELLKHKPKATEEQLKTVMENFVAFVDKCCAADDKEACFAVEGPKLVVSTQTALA

Experiments:
[1] = biological target: PSMA on intact LNCaP SEVs (UniProt Q04609); assay: AuNP aggregate disassembly (plasmon peak shift); conditions: intact SEVs, authors suggest steric hindrance by membrane; Rev1 3' C3 thiol; Rev2 5' C6 thiol; 1x PBS pH 7.4; 37 C for 30 min stated for the initial 50 pM hrPSMA screening; native protein; label: 13 nm gold nanoparticles on Rev1 and Rev2; folded or branched DNA
[2] = biological target: PSMA in LNCaP SEV protein extract (UniProt Q04609); assay: AuNP aggregate disassembly (plasmon peak shift); conditions: Rev1 3' C3 thiol, Rev2 5' C6 thiol, 1x PBS pH 7.4, 37 C for 30 min stated for the initial 50 pM hrPSMA screening, protein in an extract, label: 13 nm gold nanoparticles on Rev1 and Rev2, folded or branched DNA
[3] = biological target: BSA (UniProt P02769); assay: AuNP aggregate disassembly (DLS); conditions: BSA up to 500 uM; Rev1 3' C3 thiol; Rev2 5' C6 thiol; 1x PBS pH 7.4; 37 C for 30 min stated for the initial 50 pM hrPSMA screening; commercial protein; label: 13 nm gold nanoparticles on Rev1 and Rev2; folded or branched DNA

CTGTGACTCATCTGTGAAGGGCGGCGTTTTCGCTTTTGCGTTTTGGGTCATCTGCTTACGATAGCAATGCT / CACAGATGAGTCACAG / AAAACGCCGCCCTT [aPSMA:Rev1:Rev2 (aPSMA-AuNPs-Aggregate)]
binding result [1]: no binding
binding result ([2]; significant from 50 pM PSMA equivalent, PSMA-negative PC-3 extract gave no change): binds
binding result [3]: no binding

CTGTGACTCATCTGTGAAGGGCGGCGTTTTATATGTTACCGTCTAAGTACTCTGTTCCGCGCCGTGTGTTG / CACAGATGAGTCACAG / AAAACGCCGCCCTT [Control:Rev1:Rev2 (C-AuNPs-Aggregate)]
binding result ([2]; LNCaP SEV extract): no binding
binding result [3]: no binding
